Laboratory results: the supplement of paper PMC3334620
In all, about 33,000 sequences were measured (“E-score (-0.5 to 0.5)”: median about -0.015, highest 2% from about 0.3 on). This is one part of the list.

Biological target: T1, Abf1 (UniProt P14164)
T1 sequence: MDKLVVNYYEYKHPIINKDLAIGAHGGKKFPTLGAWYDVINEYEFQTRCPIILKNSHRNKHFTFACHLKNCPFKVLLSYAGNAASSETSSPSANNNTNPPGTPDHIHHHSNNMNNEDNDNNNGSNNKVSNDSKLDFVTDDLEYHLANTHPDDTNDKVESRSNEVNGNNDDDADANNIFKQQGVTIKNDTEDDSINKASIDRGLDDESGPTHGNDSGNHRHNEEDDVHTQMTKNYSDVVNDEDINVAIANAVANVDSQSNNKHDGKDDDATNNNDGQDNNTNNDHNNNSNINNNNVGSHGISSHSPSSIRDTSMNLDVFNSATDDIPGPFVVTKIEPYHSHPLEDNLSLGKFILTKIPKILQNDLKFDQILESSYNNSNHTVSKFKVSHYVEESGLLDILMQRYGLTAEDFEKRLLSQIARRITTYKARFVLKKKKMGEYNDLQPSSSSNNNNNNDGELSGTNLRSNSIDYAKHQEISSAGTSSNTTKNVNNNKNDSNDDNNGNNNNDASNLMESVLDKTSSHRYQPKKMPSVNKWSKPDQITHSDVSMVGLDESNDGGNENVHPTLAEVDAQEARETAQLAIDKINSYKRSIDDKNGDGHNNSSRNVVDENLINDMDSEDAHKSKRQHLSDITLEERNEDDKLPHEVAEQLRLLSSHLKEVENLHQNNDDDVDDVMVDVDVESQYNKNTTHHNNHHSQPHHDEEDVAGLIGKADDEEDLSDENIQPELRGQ
Experiment: PBM E-score (8-mer binding enrichment) (E-score (-0.5 to 0.5)); higher = stronger / more preferred TF binding
Conditions: protein concentration: 200 nM; construct: GST-full length
Summary of the method: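 Each ungapped eight-base word and its reverse complement, pooled, received an E-score from the Universal PBM Analysis Suite. Underlying scans, normalised with masliner, recorded fluorescent anti-GST bound to GST-tagged yeast transcription factors. These were applied at about 100-200 nM to universal all-10-mer Agilent arrays double-stranded by primer extension.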

| Sequence | PBM E-score |
| --- | --- |
| GCCATCTA | -0.139 |
| CCTGTAGA | -0.139 |
| AGATCAAA | 0.0132 |
| ATACCCTG | -0.0709 |
| GGGCCGCA | -0.301 |
| CCGTTAAC | -0.0354 |
| AAAAAATT | 0.116 |
| AGTCCCAG | -0.199 |
| ACGAGTAT | 0.0202 |
| ACCAAGCT | -0.00876 |
| GGCAATCA | 0.013 |
| CATGTTGG | -0.183 |
| CACCAGGG | -0.25 |
| CTCCTTGA | -0.17 |
| AGTTGGAC | -0.0524 |
| CCTATGGA | -0.177 |
| ACGCGTGG | 0.0243 |
| CCAGACGC | -0.137 |
| CAACTAAC | 0.134 |
| AAACGGAA | 0.197 |
| GCGGAGGA | -0.227 |
| CCTGGTGC | -0.106 |
| GGCATTTA | -0.144 |
| CCAGATAA | 0.00802 |
| TGCCCAAA | 0.0119 |

| Sequence | PBM E-score |
| --- | --- |
| AACCTAAC | -0.00756 |
| AAGGTGGG | -0.195 |
| ATAGCGCC | 0.0557 |
| CAAGCAGA | -0.0483 |
| CAACCGGC | 0.0444 |
| ATTAGCTA | 0.142 |
| ATTCGCCC | -0.13 |
| ACCCTGCG | -0.0365 |
| AAGTGCCT | -0.162 |
| ATGAGCTG | -0.0505 |
| AGCACTAC | -0.0483 |
| ATGTGTAC | -0.111 |
| CAAAACCG | 0.0657 |
| GATCGAGA | -0.0495 |
| CGACACAC | 0.237 |
| AAGCGAGG | -0.0709 |
| ATGCAGCC | 0.0304 |
| AGACAGAG | -0.166 |
| CGGAATGA | 0.0306 |
| ATTGCGCA | -0.109 |
| ATTGGTTC | 0.09 |
| ATACGGTC | 0.26 |
| CGAAGCTC | -0.00032 |
| TACCACGA | 0.216 |
| GGACTCGA | -0.291 |

No new results follow: entries from further up.

| Sequence | PBM E-score |
| --- | --- |
| ATACGGTC | 0.26 |
| CGAAGCTC | -0.00032 |

(further entries)

| Sequence | PBM E-score |
| --- | --- |
| ATTCTGTG | 0.00625 |
| GCCATTCC | -0.161 |
| ACACCACC | -0.17 |
| GGCTTCTA | -0.0456 |
| GAATGCTA | 0.119 |
| CCTTCATC | -0.0644 |
| GGTATAAA | -0.0171 |
| TAACATAA | 0.134 |
| GACCGCTA | -0.0269 |
| CAGTCTAC | -0.114 |
| ACTACTTC | 0.0426 |
| CGGCAACC | 0.0833 |
| AGGGAAAT | -0.0476 |
| AGGCGCAG | -0.235 |
| TGCTCTAA | 0.0391 |
| CGCTATGC | -0.0113 |
| GATATATA | 0.289 |
| AGAAGGAG | -0.354 |
| ATGGCCGG | -0.258 |
| CCCGCTCA | -0.161 |
| AACGCCAA | -3e-05 |
| GAGTGATA | 0.424 |
| CAATTGGG | -0.135 |
| AGCAATCG | 0.0931 |
| GACTGGCA | -0.194 |

| Sequence | PBM E-score |
| --- | --- |
| AGAACCAA | -0.102 |
| ACCCAATC | 0.032 |
| CTGGGCGC | -0.098 |
| AGGATTGA | -0.0149 |
| CTAACCGA | -0.151 |
| CTCTCTGA | -0.149 |
| CATTGTTA | 0.147 |
| ATCTTGTC | 0.141 |
| CGCATGGA | -0.029 |
| CATTATGG | -0.0428 |
| CCTTCGCG | -0.116 |
| GGAACCCA | -0.0699 |
| CATTCCAG | -0.0808 |
| ATGTGGCC | 0.0364 |
| AGTGTGGC | 0.0153 |
| ATGCTCGA | 0.0106 |
| ATGATAAT | 0.377 |
| CCGTCCCA | 0.198 |
| CACAAGTC | -0.1 |
| GGCCTGGA | -0.208 |
| ACCGGTAG | -0.138 |
| AAACATGA | 0.168 |
| TCTCTTAA | 0.124 |
| CTTCGCAA | 0.028 |
| GGGCCATA | -0.105 |

| Sequence | PBM E-score |
| --- | --- |
| TATAGCGA | -0.0367 |
| ACGGATAC | 0.189 |
| CTTTGACA | -0.103 |
| CACCAGCC | -0.128 |
| AGTGTCCC | -0.0369 |
| GCTCATAA | -0.0889 |
| ATCAGGTC | -0.00063 |
| AATAATCG | 0.0481 |
| AAAGTGGC | -0.118 |
| GATGGGTA | 0.0596 |
| AGTTATAG | 0.01 |
| CCCAGGCC | -0.216 |
| AGCTCGAC | -0.143 |
| ATTACCTA | 0.11 |
| CGGTTGTC | 0.0712 |
| GCGACTAA | 0.0452 |
| ATATCTAC | 0.172 |
| GCCTGTAA | -0.214 |
| ATCTTCCA | 0.105 |
| CTTGGCCA | -0.117 |
| CGGGTAGC | -0.0716 |
| ATATAGCC | 0.0391 |
| ACGTTTGA | 0.174 |
| CTTGGCAC | -0.0709 |
| GCCAGAAC | -0.0265 |

Quoted at random: two records from the list

| Sequence | PBM E-score |
| --- | --- |
| AGGCGCAG | -0.235 |
| GCTCATAA | -0.0889 |

Shown bar-delimited: entries from further up.
Sequence | PBM E-score
CTTGGCAC | -0.0709
GCCAGAAC | -0.0265

(list continues)

| Sequence | PBM E-score |
| --- | --- |
| CGTTGACA | 0.245 |
| GAAAGAAC | -0.0226 |
| ACGGGGAC | -0.058 |
| AGCTTTAC | -0.206 |
| AGGAAGAA | -0.209 |
| ACCGCGGA | -0.0979 |
| AGATAACC | 0.0382 |
| ACTACCAA | -0.0137 |
| AGTGAGAG | -0.0892 |
| CAGAGACG | 0.112 |
| GCCCAGCA | -0.191 |
| ATCAGATA | 0.181 |
| CGGATAGA | 0.147 |
| GTGGTGGA | -0.129 |
| CCCACAGA | -0.123 |
| ATCTTAGG | -0.179 |
| AACCTCGT | 0.117 |
| AGACTAGG | 0.0676 |
| GGTACCTA | -0.0193 |
| CGATTAGA | 0.059 |
| ACGCTTCC | -0.0593 |
| ACAATGGA | 0.0806 |
| CGCTCCGA | -0.178 |
| ACCCCCCA | -0.288 |
| CGACTGAA | 0.00453 |

| Sequence | PBM E-score |
| --- | --- |
| CTGTACTC | -0.154 |
| CGTACTAA | 0.329 |
| AGTGGGCG | -0.0758 |
| AATCCGAC | 0.0966 |
| GGTGGCCA | -0.00405 |
| GAAAGATA | 0.181 |
| TCTATACA | -0.058 |
| CAAGCGTG | 0 |
| GACTAAAC | -0.00383 |
| CGCGGATC | -0.15 |
| CGCACAGC | 0.0067 |
| AACGGTAT | 0.119 |
| AGGACTTA | -0.292 |
| CCTGCATA | -0.18 |
| CCCAGTAC | -0.0125 |
| GCCCCTCC | -0.354 |
| AATGGGTA | 0.0925 |
| GTGATCAC | 0.386 |
| ATGGGGAA | -0.104 |
| AATCGACC | -0.112 |
| AGTTCCCC | -0.127 |
| AAGTAAGG | 0.142 |
